PubChem BioAssay AID1259254 – NCATS – 2017

- Test: 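Genome-wide screen for genes that prevent DNA re-replication in cancer cells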 (primary screen)
- Cell system: human HCT116 colorectal cancer cells
- Reagent: single siRNA against human genes
- Time to read-out: 3 days
- Measured: 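Imaged Hoechst DNA stain sorts each cell into a cycle phase by DNA amount; per plate, G2 fraction set to 0% for non-targeting and 100% for GMNN siRNA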
- Reading the numbers: G2 robust z-score and G2 cells, % of GMNN control: higher = more G2 cells, more excess DNA replication; raw share of cells in G2: higher = larger share of cells with G2 DNA content
- Call rule: 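Active siRNAs have a G2 robust z of 5 or more median absolute deviations over the median, which in these data means about 38% or higher of GMNN control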
The deposit covers about 59,000 reagents; below is a part drawn at random. About 1,550 of them (2.6%) were called active. 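G2 share is only a proxy for re-replication; each gene was hit by three separate siRNAs, and active genes were retested.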 Raw values vary from plate to plate and are shown uncorrected. Reagents against one gene are numbered here. No sequences are given here. Not stated in the record: the amount of reagent.

The opening 5 entries as a preview:
Gene,siRNA no.,G2 robust z-score,"G2 cells, % of GMNN control",raw share of cells in G2 (%),call
CBY3,1,-0.905,-3.4,1.96,inactive
CBY3,2,-0.878,-3.21,2.57,inactive
CBY3,3,1.07,10.5,7.12,inactive
TIMM13,1,6.59,49.3,20.1,active
TIMM13,2,-0.33,0.646,4.4,inactive

The listing, repeating the preview:
Gene,siRNA no.,G2 robust z-score,"G2 cells, % of GMNN control",raw share of cells in G2 (%),call
CBY3,1,-0.905,-3.4,1.96,inactive
CBY3,2,-0.878,-3.21,2.57,inactive
CBY3,3,1.07,10.5,7.12,inactive
TIMM13,1,6.59,49.3,20.1,active
TIMM13,2,-0.33,0.646,4.4,inactive
TIMM13,3,1.53,13.7,12.4,inactive
AMBRA1,1,0.712,7.98,7.59,inactive
AMBRA1,2,0.194,4.33,5.93,inactive
AMBRA1,3,-0.438,-0.114,3.1,inactive
FLJ41170 (retired record),1,0.338,5.35,4.94,inactive
FLJ41170 (retired record),2,1.77,15.5,9.59,inactive
FLJ41170 (retired record),3,-0.854,-3.04,2.26,inactive
COP1P1,1,3.68,28.9,15,inactive
COP1P1,2,3.02,24.2,11.1,inactive
COP1P1,3,0.318,5.2,5.13,inactive
OR9G4,1,-0.01,2.9,4.7,inactive
OR9G4,2,1.18,11.3,7.4,inactive
OR9G4,3,-0.172,1.75,3.8,inactive
AGK,1,-0.848,-3,4.65,inactive
AGK,2,-0.549,-0.893,4.87,inactive
AGK,3,-0.917,-3.48,2.57,inactive
CKAP5,1,4.76,36.5,15.6,inactive
CKAP5,2,1.05,10.4,8.96,inactive
CKAP5,3,1.34,12.4,9.9,inactive
R3HCC1,1,1.37,12.6,8.14,inactive
R3HCC1,2,1.27,11.9,7.2,inactive
R3HCC1,3,0.0769,3.51,4.31,inactive
EAF2,1,-0.0831,2.38,5.44,inactive
EAF2,2,1.62,14.4,10.1,inactive
EAF2,3,-0.753,-2.33,2.39,inactive
FAM131B,1,0.125,3.84,7.07,inactive
FAM131B,2,3.53,27.8,15.6,inactive
FAM131B,3,2.08,17.6,9.82,inactive
ZNF366,1,0.901,9.31,6.29,inactive
ZNF366,2,-0.149,1.92,3.83,inactive
ZNF366,3,0.912,9.38,6.82,inactive
UBE2D1,1,-0.892,-3.31,3.03,inactive
UBE2D1,2,-0.786,-2.56,3.63,inactive
UBE2D1,3,0.821,8.74,9.29,inactive
RTN4RL1,1,-0.499,-0.544,4.47,inactive
RTN4RL1,2,-0.986,-3.97,4.07,inactive
RTN4RL1,3,3.3,26.2,14.3,inactive
INSIG1,1,3.16,25.2,15.7,inactive
INSIG1,2,-0.43,-0.0598,4.2,inactive
INSIG1,3,0.481,6.35,5.65,inactive
NPIPB1P,1,5.29,40.2,16.8,active
NPIPB1P,2,0.395,5.75,5.27,inactive
NPIPB1P,3,-0.0777,2.42,5.04,inactive
LAMP1,1,-0.626,-1.44,4.36,inactive
LAMP1,2,1.3,12.1,8.99,inactive
LAMP1,3,-0.572,-1.06,2.97,inactive
ZMAT4,1,0.119,3.81,5.57,inactive
ZMAT4,2,-0.962,-3.8,3.85,inactive
ZMAT4,3,-0.752,-2.32,3.93,inactive
RPL26L1,1,-1.1,-4.79,1.74,inactive
RPL26L1,2,-0.494,-0.507,3.66,inactive
RPL26L1,3,3.03,24.3,13.7,inactive
ZFP28,1,5.07,38.6,16.4,active
ZFP28,2,-0.0372,2.71,4.11,inactive
ZFP28,3,1.8,15.6,9.01,inactive
VSTM2B,1,1.51,13.6,8.66,inactive
VSTM2B,2,-0.778,-2.51,2.16,inactive
VSTM2B,3,0.0465,3.29,5.52,inactive
TMEM60,1,0.663,7.63,7.32,inactive
TMEM60,2,1.07,10.5,6.29,inactive
TMEM60,3,1.02,10.2,6.15,inactive
TARS1,1,-0.576,-1.08,4.27,inactive
TARS1,2,-0.28,1,4.48,inactive
TARS1,3,0.88,9.16,8.13,inactive
MATCAP2,1,-0.724,-2.12,3.61,inactive
MATCAP2,2,0.2,4.38,5.84,inactive
MATCAP2,3,-0.44,-0.131,3.25,inactive
TAFA2,1,-1.08,-4.65,2.39,inactive
TAFA2,2,0.611,7.27,6.44,inactive
TAFA2,3,-0.711,-2.04,3.37,inactive
ZNF584,1,-0.816,-2.78,2.14,inactive
ZNF584,2,0.577,7.02,5.6,inactive
ZNF584,3,0.397,5.76,5.55,inactive
NLK,1,-0.0674,2.49,6.36,inactive
NLK,2,0.218,4.5,6.83,inactive
NLK,3,1.06,10.4,7.02,inactive
STXBP2,1,1.46,13.2,11,inactive
STXBP2,2,6.78,50.6,24,active
STXBP2,3,-0.543,-0.85,3.05,inactive
TPD52L1,1,-0.226,1.37,5.74,inactive
TPD52L1,2,1.4,12.8,8.97,inactive
TPD52L1,3,0.545,6.8,5.75,inactive
